The record followed here is publication PMC6966528.

Protein sequences, listed by entry. Tags and fused reporters are not part of them.
UniProt P35222: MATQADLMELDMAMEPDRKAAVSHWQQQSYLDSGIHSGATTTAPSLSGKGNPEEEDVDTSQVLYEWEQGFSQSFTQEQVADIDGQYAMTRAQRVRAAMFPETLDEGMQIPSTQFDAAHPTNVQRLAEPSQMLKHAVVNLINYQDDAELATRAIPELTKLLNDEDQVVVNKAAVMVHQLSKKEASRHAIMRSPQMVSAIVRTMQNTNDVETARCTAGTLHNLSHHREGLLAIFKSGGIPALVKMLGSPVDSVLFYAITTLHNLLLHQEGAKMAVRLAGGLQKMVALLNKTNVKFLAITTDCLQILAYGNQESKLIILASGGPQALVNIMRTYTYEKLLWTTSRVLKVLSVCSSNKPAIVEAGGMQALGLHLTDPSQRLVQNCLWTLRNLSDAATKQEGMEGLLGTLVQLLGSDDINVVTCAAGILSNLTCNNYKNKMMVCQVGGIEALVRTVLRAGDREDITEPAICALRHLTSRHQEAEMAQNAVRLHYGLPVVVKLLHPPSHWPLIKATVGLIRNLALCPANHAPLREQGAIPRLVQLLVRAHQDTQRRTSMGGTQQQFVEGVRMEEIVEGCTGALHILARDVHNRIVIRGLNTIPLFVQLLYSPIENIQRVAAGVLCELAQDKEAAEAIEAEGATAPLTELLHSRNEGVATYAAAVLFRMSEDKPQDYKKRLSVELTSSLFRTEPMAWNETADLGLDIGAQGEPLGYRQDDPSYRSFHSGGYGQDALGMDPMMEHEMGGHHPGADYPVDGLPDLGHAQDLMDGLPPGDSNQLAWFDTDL
UniProt P35221: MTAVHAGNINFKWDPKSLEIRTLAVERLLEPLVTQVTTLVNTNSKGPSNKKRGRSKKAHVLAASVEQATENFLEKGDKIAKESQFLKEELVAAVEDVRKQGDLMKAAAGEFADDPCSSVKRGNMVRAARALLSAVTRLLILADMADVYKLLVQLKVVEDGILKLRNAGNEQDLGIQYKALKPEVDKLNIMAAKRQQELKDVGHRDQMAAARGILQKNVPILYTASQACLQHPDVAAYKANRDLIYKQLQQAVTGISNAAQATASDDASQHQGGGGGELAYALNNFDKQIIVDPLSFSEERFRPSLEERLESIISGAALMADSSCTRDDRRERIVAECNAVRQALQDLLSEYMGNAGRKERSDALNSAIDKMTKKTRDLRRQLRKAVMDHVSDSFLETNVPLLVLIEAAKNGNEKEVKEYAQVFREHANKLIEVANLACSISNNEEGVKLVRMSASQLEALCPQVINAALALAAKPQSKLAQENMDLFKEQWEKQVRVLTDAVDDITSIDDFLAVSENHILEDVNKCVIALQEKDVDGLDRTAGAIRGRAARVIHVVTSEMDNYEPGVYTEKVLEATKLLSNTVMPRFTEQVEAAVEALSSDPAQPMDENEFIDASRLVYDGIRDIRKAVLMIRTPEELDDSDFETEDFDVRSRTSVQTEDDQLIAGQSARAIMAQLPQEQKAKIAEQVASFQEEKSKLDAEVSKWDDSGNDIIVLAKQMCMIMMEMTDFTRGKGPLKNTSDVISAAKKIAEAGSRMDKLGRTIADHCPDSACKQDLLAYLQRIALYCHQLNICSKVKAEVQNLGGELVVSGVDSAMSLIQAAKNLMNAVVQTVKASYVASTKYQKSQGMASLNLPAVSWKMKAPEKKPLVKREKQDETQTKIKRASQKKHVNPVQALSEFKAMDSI

Results are given in words; binding and its absence hold for the method and conditions named. Binding seen in cells or lysates may run through a third protein. Some entries that bind do so weakly or less than the wild type.

For the experiment, the target named is pY30-β-catenin (human (endogenous in MCF7)) (UniProt P35222). The experiment can be described thus: co-IP; lysates of parental (nontransfected) and GFP-Syk-expressing MCF7 cells; ≈700 μg lysate with 2 μg antibody, protein-A/G Sepharose beads, 4 °C, 3 h; Western blot.

As for α-catenin (from UniProt P35221 1-906), the binding entry is on record as “binds”.
